# Results reported in the supplement of paper PMC8728848.
# This is one part of the list.
# How the values were obtained:
# Assay in all cases: glycan array binding signal (z-score within array); higher = stronger binding
# Conditions in all cases: glycan notation: IUPAC condensed, linker removed
# Fuc(a1-2)Gal = biological target: Fuc(a1-2)Gal
# How it was run: (§1)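 Columns mapping to the same glycan were averaged after glycan names were converted to IUPAC-condensed notation. The data come from 3228 arrays in the Consortium for Functional Glycomics database, limited to those with an available protein sequence. Binding is reported as a within-array Z-score averaged across arrays of one protein sequence and across linkers.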
# Fuc(a1-2)Gal(b1-3)GalNAc = biological target: Fuc(a1-2)Gal(b1-3)GalNAc
# How it was run: as §1
# [1] = biological target: Fuc(a1-2)Gal(b1-3)GalNAc(b1-3)Gal
# How it was run: as §1
# [2] = biological target: Fuc(a1-2)Gal(b1-3)GalNAc(b1-3)Gal(a1-4)Gal(b1-4)Glc
# How it was run: as §1
# [3] = biological target: Fuc(a1-2)Gal(b1-3)GalNAc(b1-4)[Neu5Ac(a2-3)]Gal(b1-4)Glc
# How it was run: as §1
# Fuc(a1-2)Gal(b1-3)GlcNAc = biological target: Fuc(a1-2)Gal(b1-3)GlcNAc
# How it was run: as §1
# [4] = biological target: Fuc(a1-2)Gal(b1-3)GlcNAc(b1-2)Man(a1-3)[Fuc(a1-2)Gal(b1-3)GlcNAc(b1-2)Man(a1-6)]Man(b1-4)GlcNAc(b1-4)GlcNAc
# How it was run: as §1
# [5] = biological target: Fuc(a1-2)Gal(b1-3)GlcNAc(b1-3)Gal(b1-4)Glc
# How it was run: as §1
# [6] = biological target: Fuc(a1-2)Gal(b1-3)GlcNAc(b1-3)[Gal(b1-4)[Fuc(a1-3)]GlcNAc(b1-6)]Gal(b1-4)Glc
# How it was run: as §1
# [7] = biological target: Fuc(a1-2)Gal(b1-3)[Fuc(a1-4)]GlcNAc
# How it was run: as §1
# [8] = biological target: Fuc(a1-2)Gal(b1-3)[Fuc(a1-4)]GlcNAc(b1-2)Man(a1-3)[Fuc(a1-2)Gal(b1-3)[Fuc(a1-4)]GlcNAc(b1-2)Man(a1-6)]Man(b1-4)GlcNAc(b1-4)GlcNAc
# How it was run: as §1
# Fuc(a1-2)Gal(b1-4)Glc = biological target: Fuc(a1-2)Gal(b1-4)Glc
# How it was run: as §1
# Fuc(a1-2)Gal(b1-4)Glc6S = biological target: Fuc(a1-2)Gal(b1-4)Glc6S
# How it was run: as §1
# Fuc(a1-2)Gal(b1-4)GlcNAc = biological target: Fuc(a1-2)Gal(b1-4)GlcNAc
# How it was run: as §1
# [9] = biological target: Fuc(a1-2)Gal(b1-4)GlcNAc(b1-2)Man(a1-3)[Fuc(a1-2)Gal(b1-4)GlcNAc(b1-2)Man(a1-6)]Man(b1-4)GlcNAc(b1-4)GlcNAc
# How it was run: as §1
# [10] = biological target: Fuc(a1-2)Gal(b1-4)GlcNAc(b1-3)Gal(b1-4)GlcNAc
# How it was run: as §1
# [11] = biological target: Fuc(a1-2)Gal(b1-4)GlcNAc(b1-3)Gal(b1-4)GlcNAc(b1-3)Gal(b1-4)GlcNAc
# How it was run: as §1
# [12] = biological target: Fuc(a1-2)Gal(b1-4)GlcNAc6S
# How it was run: as §1
# [13] = biological target: Fuc(a1-2)Gal(b1-4)[Fuc(a1-3)]GlcNAc
# How it was run: as §1
# [14] = biological target: Fuc(a1-2)Gal(b1-4)[Fuc(a1-3)]GlcNAc(b1-2)Man(a1-3)[Fuc(a1-2)Gal(b1-4)[Fuc(a1-3)]GlcNAc(b1-2)Man(a1-6)]Man(b1-4)GlcNAc(b1-4)GlcNAc
# How it was run: as §1
# [15] = biological target: Fuc(a1-2)Gal(b1-4)[Fuc(a1-3)]GlcNAc(b1-3)Gal(b1-4)[Fuc(a1-3)]GlcNAc
# How it was run: as §1
# [16] = biological target: Fuc(a1-2)Gal(b1-4)[Fuc(a1-3)]GlcNAc(b1-3)Gal(b1-4)[Fuc(a1-3)]GlcNAc(b1-3)Gal(b1-4)[Fuc(a1-3)]GlcNAc
# How it was run: as §1
# Fuc(a1-2)Gal6S(b1-4)Glc = biological target: Fuc(a1-2)Gal6S(b1-4)Glc
# How it was run: as §1
# [17] = biological target: Fuc(a1-2)Gal6S(b1-4)Glc6S
# How it was run: as §1
# [18] = biological target: Fuc(a1-2)Gal6S(b1-4)GlcNAc
# How it was run: as §1
# Fuc(a1-2)[Gal(a1-3)]Gal = biological target: Fuc(a1-2)[Gal(a1-3)]Gal
# How it was run: as §1
# [19] = biological target: Fuc(a1-2)[Gal(a1-3)]Gal(b1-3)GlcNAc
# How it was run: as §1
# [20] = biological target: Fuc(a1-2)[Gal(a1-3)]Gal(b1-3)GlcNAc(b1-2)Man(a1-3)[Fuc(a1-2)[Gal(a1-3)]Gal(b1-3)GlcNAc(b1-2)Man(a1-6)]Man(b1-4)GlcNAc(b1-4)GlcNAc
# How it was run: as §1
# [21] = biological target: Fuc(a1-2)[Gal(a1-3)]Gal(b1-4)Glc
# How it was run: as §1
# [22] = biological target: Fuc(a1-2)[Gal(a1-3)]Gal(b1-4)GlcNAc
# How it was run: as §1
binder,measurement,setting,value
"4F2hc (Homo sapiens), P08195 (protein) WWHTGALYRIGDLQAFQGHGAGNLAGLKGRLDYLSSLKVKGLVLGPIHKNQKDDVAQTDLLQIDPNFGSKEDFDSLLQSAKKKSIRVILDLTPNYRGENSWFSTQVDTVATKVKDALEFWLQAGVDGFQVRDIENLKDASSFLAEWQNITKGFSEDRLLIAGTNSSDLQQILSLLESNKDLLLTSSYLSDSGSTGEHTKSLVTQYLNATGNRWCSWSLSQARLLTSFLPAQLLRLYQLMLFTLPGTPVFSYGDEIGLDAAALPGQPMEAPVMLWDESSFPDIPGAVSANMTVKGQSEDPGSLLSLFRRLSDQRSKERSLLHGDFHAFSAGPGLFSYIRHWDQNERFLVVLNFGDVGLSAGLQASDLPASASLPAKADLLLSTQPGREEGSPLELERLKLEPHEGLLLRFPYAA",glycan array binding signal (z-score),Fuc(a1-2)Gal,-0.463
same,glycan array binding signal (z-score),Fuc(a1-2)Gal(b1-3)GalNAc,1.57
same,glycan array binding signal (z-score),[1],-0.349
same,glycan array binding signal (z-score),[2],-0.609
same,glycan array binding signal (z-score),[3],0.444
same,glycan array binding signal (z-score),Fuc(a1-2)Gal(b1-3)GlcNAc,-0.589
same,glycan array binding signal (z-score),[4],-0.859
same,glycan array binding signal (z-score),[5],-0.548
same,glycan array binding signal (z-score),[6],1.24
same,glycan array binding signal (z-score),[7],-0.964
same,glycan array binding signal (z-score),[8],-0.402
same,glycan array binding signal (z-score),Fuc(a1-2)Gal(b1-4)Glc,-0.723
same,glycan array binding signal (z-score),Fuc(a1-2)Gal(b1-4)Glc6S,-1.04
same,glycan array binding signal (z-score),Fuc(a1-2)Gal(b1-4)GlcNAc,0.985
same,glycan array binding signal (z-score),[9],-0.399
same,glycan array binding signal (z-score),[10],0.51
same,glycan array binding signal (z-score),[11],0.737
same,glycan array binding signal (z-score),[12],-0.129
same,glycan array binding signal (z-score),[13],0.492
same,glycan array binding signal (z-score),[14],0.184
same,glycan array binding signal (z-score),[15],-0.122
same,glycan array binding signal (z-score),[16],-0.346
same,glycan array binding signal (z-score),Fuc(a1-2)Gal6S(b1-4)Glc,0.052
same,glycan array binding signal (z-score),[17],-0.953
same,glycan array binding signal (z-score),[18],-1.01
same,glycan array binding signal (z-score),Fuc(a1-2)[Gal(a1-3)]Gal,-0.718
same,glycan array binding signal (z-score),[19],0.071
same,glycan array binding signal (z-score),[20],-0.902
same,glycan array binding signal (z-score),[21],-0.23
same,glycan array binding signal (z-score),[22],0.547

# Part of the list above, set out differently:
binder	measurement	setting	value
4F2hc (Homo sapiens), P08195 (protein) WWHTGALYRIGDLQAFQGHGAGNLAGLKGRLDYLSSLKVKGLVLGPIHKNQKDDVAQTDLLQIDPNFGSKEDFDSLLQSAKKKSIRVILDLTPNYRGENSWFSTQVDTVATKVKDALEFWLQAGVDGFQVRDIENLKDASSFLAEWQNITKGFSEDRLLIAGTNSSDLQQILSLLESNKDLLLTSSYLSDSGSTGEHTKSLVTQYLNATGNRWCSWSLSQARLLTSFLPAQLLRLYQLMLFTLPGTPVFSYGDEIGLDAAALPGQPMEAPVMLWDESSFPDIPGAVSANMTVKGQSEDPGSLLSLFRRLSDQRSKERSLLHGDFHAFSAGPGLFSYIRHWDQNERFLVVLNFGDVGLSAGLQASDLPASASLPAKADLLLSTQPGREEGSPLELERLKLEPHEGLLLRFPYAA	glycan array binding signal (z-score)	[10]	0.51
same	glycan array binding signal (z-score)	[11]	0.737
same	glycan array binding signal (z-score)	[12]	-0.129
same	glycan array binding signal (z-score)	[13]	0.492
same	glycan array binding signal (z-score)	[14]	0.184
same	glycan array binding signal (z-score)	[15]	-0.122
same	glycan array binding signal (z-score)	[16]	-0.346
